# Hit rate of the full screen: of about 320,000 compounds, about 2,100 (0.66%) were called active. This list was built around the results that the source calls inconclusive (neither active nor inactive); the mix of calls is not that of the screen. Calls come from the whole dose curve; as a rule, active = well fitted inhibition curve with a large enough effect in the signal ratio, with a control signal flat (not every such curve was filed as active); inconclusive = small, poorly fitted or top-dose-only effect, or effect the other way, or a change in a side signal; inactive = flat fitted curve, though single readings scatter; the % refers to the signal ratio. Where the call is inconclusive, the potency comes from a doubtful curve fit.
# Assay: qHTS Assay for Lipid Storage Modulators in Drosophila S3 Cells
# Conditions: BODIPY lipid droplet fluorescence, 18-24 h, cells fed with added oleic acid; lipid storage change, negative = inhibition: at 46.1 µM (top of the series) unless noted
# Procedure, shortened: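 Drosophila S3 cells loaded with oleic acid (400 uM, as added) and compounds at several concentrations; lipid droplets imaged by 488-nm laser-scanning cytometry, 500–530 nm intensity and object ratio to cell channel. Percent activity normalized to 20 uM Triacsin C.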
# % is set by controls: 0 for no effect and ±100 for the full control effect; potency is the fitted concentration of half-maximal effect.
Structure (SMILES),"lipid storage change, negative = inhibition",Potency,outcome
CNC(=S)N/N=C/c1ccco1,inconclusive: 10.2%,,
OCCCN1c2ccccc2Nc2nnc(-c3ccccc3)cc21,,"inconclusive: 25.9 µM [falling, partial curve]",
COc1ccc(OC)c2nc(-c3ccncc3)ccc12,inconclusive: 16.2%,,
Cc1ccc(C(=O)OCCN(C)Cc2ccccc2)cc1,inconclusive: 7.91%,,
Cc1ccc(NC(=S)NNC(=O)c2cn(C)nc2C)cc1,inconclusive: 18.7%,,
CCCCc1nnc(SCCSc2nnc(CCCC)n2N)n1N,inconclusive: 9.88%,,
CC(C)c1ccc(OCC(=O)Nc2ccc(S(=O)(=O)Nc3ccccn3)cc2)cc1,inconclusive: 0.646%,,
CCCCSc1nc2c(c(C(F)(F)F)c1C#N)CCC2,inconclusive: 31.3%,,
O=C1CC(N2CCN(c3ccccc3)CC2)C(=O)N1c1ccc(Cl)cc1 (stereo not given),,"inconclusive: 29.1 µM [activator, single point]",
COc1ccccc1NC(=O)c1ccccc1NS(=O)(=O)N1CCCC1,,"inconclusive: 1.46 µM [activator, partial curve]",
CC(C)(C)NC(=O)c1ccc(COCC(F)(F)F)o1,inconclusive: -5.49%,,
Cc1cc(SCC(=O)N/N=C/c2ccc(O)c(O)c2O)c(C)cc1Br,inconclusive: 70%,,
CCN1C(=O)N(CC)C2C1N(CO)C(=O)N2CO (stereo not given),,"inconclusive: 0.731 µM [activator, full curve]",
CCOC(=O)c1ccc(NC(=O)c2cc(S(=O)(=O)N3CCOCC3)cn2C)cc1,inconclusive: -33.6%,,
COc1ccccc1NS(=O)(=O)c1cccc(C(=O)N/N=C(\C)c2cccnc2)c1,inconclusive: 5.53%,,
CN1CCN(CCOCCOc2ccc(Br)cc2Cl)CC1,inconclusive: 27.7%,,
O=C1C2C3C=CC(C4CC34)C2C(=O)N1c1cccc2ccccc12 (stereo not given),,"inconclusive: 29.1 µM [falling, single point]",
CC(Oc1ccc2c(-c3ccccc3)cc(=O)oc2c1)C(=O)NCCCn1ccnc1 (stereo not given),inconclusive: -4.63%,,
CCn1c(SCC(=O)OC)nc2sc3c(c2c1=O)CC(C)(C)OC3,inconclusive: 45.9%,,
COc1cc(OC)cc(-c2c(-c3cccs3)c3cc(-c4ccc(SC)cc4)ccc3n2C)c1,inconclusive: -0.164%,,

Structure (SMILES),"lipid storage change, negative = inhibition",Potency,outcome
O=C(Nc1ccc(Cl)cc1)C1CCC(=O)N1Cc1ccccc1Cl (stereo not given),,,inactive [at 46.1 µM]
Cc1c(CCC(=O)NCCCn2ccnc2)c(=O)oc2cc3oc4c(c3cc12)CCCC4,inconclusive: -40.7%,,
Cc1cc(C(=O)NCC(C)(C)N2CCOCC2)c(C)o1,inconclusive,,
c1cc(-c2ccncc2)ccn1,inconclusive: 5.71%,,
CCCOc1ccc(-c2nc(C#N)c(N3CCN(C)CC3)o2)cc1,inconclusive: 32.5%,,
CN1C(C(=O)Nc2ccc(OC(F)(F)F)cc2)=CC(c2cccs2)=NS1(=O)=O,inconclusive: -50.8%,,
O=C(c1cccc(S(=O)(=O)Nc2ccccc2Cl)c1)N1CCCCCC1,inconclusive,,
COc1ccccc1/C=C/C(=O)OCC(=O)c1c(N)n(C)c(=O)n(C)c1=O,inconclusive: 23.1%,,
Cc1cc(NS(=O)(=O)c2ccc(NC(=S)NC(=O)c3ccc(Cl)cc3Cl)cc2)no1,inconclusive: 7.95%,,
COc1ccc2nc(Nc3nc(-c4cc5ccccc5oc4=O)cs3)sc2c1,inconclusive: 32.5% [activator],,
CC1Cc2nc(SCC(=O)N3CCOCC3)n(-c3ccccc3)c(=O)c2S1 (stereo not given),inconclusive: 27.7%,,
CCOc1ccc(CCNC(=O)c2c(C)noc2C)cc1OCC,inconclusive: 19.4%,,
O=C(Nc1ccc2[nH]c(=O)[nH]c2c1)C(F)(F)F,inconclusive: -13.5%,,
COc1ccccc1OCC(=O)n1cc(C(=O)c2cc(Cl)cc(Cl)c2O)cn1,,"inconclusive: 2.91 µM [falling, single point]",
CC(C)Oc1cc(O)c2c(=O)c(-c3ccc(O)cc3)coc2c1,inconclusive: 30.2%,,
CCOC(=O)N1CCN(C(=O)c2cccc(NC3=NC4CS(=O)(=O)CC4S3)c2)CC1 (stereo not given),inconclusive: -9.62%,,
O=C(c1cccc(Oc2ccc([N+](=O)[O-])cc2Cl)c1)N1CCCCC1,,"inconclusive: 0.103 µM [activator, full curve, poor fit]",
COc1cc(C(=O)NCc2nnc(SCC(=O)Nc3cc(C)cc(C)c3)o2)cc(OC)c1OC,inactive: 5.11%,,
O=C(C1COc2ccccc2O1)N1CCN(Cc2ccccc2)CC1 (stereo not given),inconclusive: 51.9%,,
COc1ccc2c(CSc3nc4nc(C)cc(C)n4n3)cc(=O)oc2c1,,"inconclusive: 6.51 µM [activator, full curve, poor fit]",

# 2 entries picked at random from the list so far, as already listed:
Structure (SMILES),"lipid storage change, negative = inhibition",Potency,outcome
O=C1C2C3C=CC(C4CC34)C2C(=O)N1c1cccc2ccccc12 (stereo not given),,"inconclusive: 29.1 µM [falling, single point]",
CCN1C(=O)N(CC)C2C1N(CO)C(=O)N2CO (stereo not given),,"inconclusive: 0.731 µM [activator, full curve]",

# Source: PubChem BioAssay AID2685 (National Center for Advancing Translational Sciences (NCATS), 2010)
